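Whole-cell growth test on Mycobacterium tuberculosis, read after 3 days in glucose-containing 7H9 medium; the read-out is not stated. Compounds at 50 µM. Direction is inferred from retests: higher values go with more growth inhibition. Of about 69,000 compounds tested this way, about 760 (1.1%) reached 50% or more in at least one test.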

The filed quantity is “Percent Effect” (%).
The record does not define 0% and 100%; most values in the screen are far below 50% and negative numbers occur (in some assays of this library far below -100).
The compounds are a random part of those screened.
Two or more numbers in one place are separate tests of the same structure; such repeats can differ widely.

| # | Compound | percent effect |
|---|---|---|
| 1 | `COc1cccc(-c2cc(NCc3nc(C)cs3)n(C)n2)c1` | -1.738 |
| 2 | `CCN(CCC(=O)OC)S(=O)(=O)c1cnc2c(c1)c(C)nn2C` | -11.23 |
| 3 | `Cn1nnc2c1C(COCC1CC1)CN(C(=O)[C@H]1CCCO1)C2` (stereo partly specified) | -33.42 and -4.572 |
| 4 | `O=C(O)C(F)(F)F.[H][C@@]12CN(CC3CCCC3)C[C@]1([H])OCCN2c1ncc(F)cn1` | 11.34 |
| 5 | `Cc1nc(CN2CCOCC3(CCN(c4ncccn4)CC3)C2)cs1.O=C(O)C(F)(F)F` | 27.37 |
| 6 | `NCCO[C@H]1C[C@@H](O)C12CCN(C(=O)COc1cccc(Cl)c1)CC2` | -6.127 |
| 7 | `O=C(O)C(F)(F)F.[H][C@@]12CCN(c3ccc(C)nn3)[C@]1([H])CC[C@@H](C(=O)NCc1ccco1)O2` | -16.75 |
| 8 | `Cc1nc(C2CCN(C(=O)CO)CC2)cc(N2CCOCC2)n1` | 1.889 |
| 9 | `CC(=O)Nc1nc(C2CCN(C(=O)c3ccncc3)CC2)cs1` | -28.38 |
| 10 | `Cc1cnn(CC(C)NCc2nc(-c3ccccn3)no2)c1` (stereo unspecified) | 19.2 |
| 11 | `COC(C)c1noc(CN2CCCNCC2)n1` (stereo unspecified) | 13.93 |
| 12 | `CCSc1ncc(CN(Cc2cnn(C)c2)CC(C)C)cn1` | 20.02 and -22.85 |
| 13 | `CCc1ncc2c(n1)CN(Cc1nnc(C)o1)CC2` | -2.459 and -9.159 |
| 14 | `CSC1(CNC(=O)c2cccc(-n3cccn3)c2)CCOCC1` | 4.869 |
| 15 | `O=C(NCc1nncn1C1CC1)c1ccccc1Oc1cccnc1` | -29.83 |
| 16 | `Cc1cccc(C(=O)N2CCC(c3n[nH]c(C4CC4)n3)CC2)c1` | 6.051 |
| 17 | `Cc1ccc(C(=O)N2CCC(Oc3ccccc3)CC2)c(=O)[nH]1` | -5.546 |
| 18 | `COC(=O)C(C)(C)NC(=O)c1cc(COc2ccccc2OC)[nH]n1` | -3.719 |
| 19 | `O=C(CCSc1ccc(F)cc1)N1CCN(c2cnccn2)CC1` | 45.27 and 8.438 |
| 20 | `Cc1nnc2sc(-c3cc(C(C)C)n[nH]3)nn12` | -1.313 and -7.413 |
| 21 | `COC(=O)C(c1cc(F)ccc1F)N(C)C(=O)c1cnc(C)cn1` (stereo unspecified) | -9.795 |
| 22 | `COc1nn(C)c2c1CCCN(S(=O)(=O)c1cccs1)C2` | -32.69 and 4.182 |
| 23 | `CCCc1cc(C(=O)N(C)Cc2cccc3ncccc23)n(C)n1` | 20.22 |
| 24 | `Cc1ccc(NCc2nc3n(n2)CCCCC3)c(C)c1` | -3.907 |
| 25 | `CCC1CCN(CCn2cnc3c(C)csc3c2=O)CC1` | 0.5608 |
| 26 | `O=C(NCc1cn2c(n1)CN(Cc1ccccn1)CC2)C1CCC1.O=C(O)C(F)(F)F.O=C(O)C(F)(F)F` | -4.553 and -12.91 |
| 27 | `CO[C@H]1CNC[C@@H]1NC(=O)CCc1nc(-c2ccccc2)no1` | 21.71 |
| 28 | `CC(=O)NC(C)C(=O)N(Cc1ccc(C)c(C)c1)C1CC1` (stereo unspecified) | 25.21 |
| 29 | `O=C(c1cnccn1)N1CCC2(CCN(Cc3ccsc3)C2)CC1` | 23.12 |
| 30 | `CCSc1ccc(NC(=O)N2CCCC2c2ccncc2)cn1` (stereo unspecified) | 7.469 |
| 31 | `CCc1ccc(CNC(=O)CCc2nnc(-c3ccc(C)s3)o2)nc1` | 39.59 |
| 32 | `CCC(C)C(=O)NS(=O)(=O)c1ccc(C#N)cc1C(F)(F)F` (stereo unspecified) | -2.65 and -17.5 |
| 33 | `Cc1nccn1-c1cc(CNC(=O)CCC2CCCO2)ccn1` (stereo unspecified) | 3.303 |
| 34 | `O=C(O)C(F)(F)F.[H][C@]12C[C@@H](CN(C)C)N(C(C)=O)[C@@]1([H])CCN(C(=O)c1cnc(C)cn1)C2` | -5.515 |
| 35 | `CN(C)CCNC(=O)CCC1CCN(C(=O)c2ccc(Cl)cc2O)CC1` | 21.54 |
| 36 | `CN(Cc1ccsc1)C(=O)c1cccc(S(=O)(=O)NC(C)(C)C)c1` | 5.452 |
| 37 | `O=C([C@H](O)c1ccccc1)N1CCN(c2cccc(Cl)c2)C(=O)C1` | -23.74 |
| 38 | `Cn1nc(CN2CCOCC2)c2c1CN(C(=O)c1ccc[nH]1)C2` | 0.741 and -33.44 |
| 39 | `Cc1cc(N)nc(C2(C)CCCN2C(=O)c2cnccn2)n1` (stereo unspecified) | -32.24 |
| 40 | `[H][C@]12CN(c3ccccn3)CCN1C[C@H](CO)[C@H]2c1ccccc1` | -10.3 |
| 41 | `CN1CCC(Cc2cccc(-c3cc(F)ccc3C(=O)O)n2)CC1` | 0.2282 |
| 42 | `CC(=O)Nc1nc(C(=O)NCc2ccc(OC(C)C)nc2)cs1` | 19.1 |
| 43 | `Cl.Cn1ncc2c1CCCC2NCc1cc(Br)cs1` (stereo unspecified) | 7.355 |
| 44 | `CN(C)S(=O)(=O)N1CCCC(C)(c2ncc(C(N)=O)s2)C1` (stereo unspecified) | -21.2 |
| 45 | `CCc1cc(N2CCC(N[C@@H]3CS(=O)(=O)C[C@H]3O)CC2)nc(N(C)C)n1` | -11.89 |
| 46 | `CNC(=O)C1(c2cnccn2)CCCN1C(=O)Cc1ccsc1` (stereo unspecified) | -19.32 |
| 47 | `[H][C@@]12CCCO[C@]1([H])[C@H](NC(=O)CC1CC1)CN(C(=O)c1cccs1)C2` | 0.2995 |
| 48 | `Cc1ccc(CNCCN2CCOCC2)o1` | -5.676 |
| 49 | `Cc1cnn(CC2CCCN2CCCc2nc3ccccc3o2)c1` (stereo unspecified) | 41.2 |
| 50 | `CC(C)C(NC(N)=O)C(=O)NCc1ccc(N2CCCC2)nc1` (stereo unspecified) | -29.66 |
| 51 | `CC(=O)N1CCC2(C1)c1ccccc1S(=O)(=O)N2Cc1ccccc1` (stereo unspecified) | 17.35 |
| 52 | `O=S1(=O)CCC(n2cc(CNc3ccccc3Br)cn2)C1` (stereo unspecified) | -21.97 |
| 53 | `Cc1nc(C)n(C2CCCN(C(=O)COc3ccccc3)C2)n1` (stereo unspecified) | -3.125 |
| 54 | `CN(CC(F)(F)F)C(=O)COc1nc(Cc2ccc(F)cc2)no1` | 1.988 |
| 55 | `CCN(C(c1ccc(OC)cc1)c1cccnc1)S(C)(=O)=O` (stereo unspecified) | -1.74 and 8.757 |
| 56 | `COc1ccccc1[C@@H]1CN(Cc2csc(C(C)=O)c2)C[C@H]1C(=O)O` | -15.4 |
| 57 | `Cc1nc(CN2CCCC(N(C)Cc3c(C)noc3C)C2)no1` (stereo unspecified) | 20.16 |
| 58 | `Cc1noc(CN(CCO)Cc2cc(Br)ccc2F)n1` | 24.34 and 3.675 |
| 59 | `CC(=O)N1CCc2[nH]cnc2C12CCN(CC1CCOC1)CC2` (stereo unspecified) | -4.606 |

The last 5 entries again:

Compound,percent effect
CCN(C(c1ccc(OC)cc1)c1cccnc1)S(C)(=O)=O (stereo unspecified),-1.74 and 8.757
COc1ccccc1[C@@H]1CN(Cc2csc(C(C)=O)c2)C[C@H]1C(=O)O,-15.4
Cc1nc(CN2CCCC(N(C)Cc3c(C)noc3C)C2)no1 (stereo unspecified),20.16
Cc1noc(CN(CCO)Cc2cc(Br)ccc2F)n1,24.34 and 3.675
CC(=O)N1CCc2[nH]cnc2C12CCN(CC1CCOC1)CC2 (stereo unspecified),-4.606

From ChEMBL document CHEMBL3988442, “University of Dundee, Small-Polar-MMV Screening Library” (2021).